From PubChem BioAssay AID504847 (National Center for Advancing Translational Sciences (NCATS), 2011)
Several values for one entry are separate records, joined by “and”; a condition that tells them apart may be missing. Equal values may be shown once. Out of some 400,000 compounds screened, about 3,700 (0.93%) were called active. Inconclusive results, whose numbers are uncertain, are shown with a selection of clear calls. Calls follow the shape of the dose curve; as a rule, active = well fitted inhibition curve with a large enough effect; inconclusive = small, poorly fitted or top-dose-only effect, or another doubt; inactive = no such curve, though single readings can be large or run the other way. Where the call is inconclusive, the potency comes from a doubtful curve fit.

Protein sequences, listed by entry. Tags and fused reporters are not part of them. Lines headed by an entry give the natural chain unless they say otherwise; changes in a name come on top.
UniProt P11473: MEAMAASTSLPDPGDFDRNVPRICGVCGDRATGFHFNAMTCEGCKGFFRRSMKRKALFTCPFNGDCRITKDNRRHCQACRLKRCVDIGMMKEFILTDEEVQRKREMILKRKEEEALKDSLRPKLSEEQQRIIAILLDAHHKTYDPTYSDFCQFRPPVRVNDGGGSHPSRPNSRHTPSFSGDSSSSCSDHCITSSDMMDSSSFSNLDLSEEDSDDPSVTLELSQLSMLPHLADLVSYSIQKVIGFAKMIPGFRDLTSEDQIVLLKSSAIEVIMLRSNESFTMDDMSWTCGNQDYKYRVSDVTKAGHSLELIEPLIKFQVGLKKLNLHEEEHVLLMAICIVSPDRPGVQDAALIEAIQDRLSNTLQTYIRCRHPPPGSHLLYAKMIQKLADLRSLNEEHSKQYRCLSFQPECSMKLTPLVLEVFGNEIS

These molecules were tested against Vitamin D3 receptor (Homo sapiens) (UniProt P11473) (assay: Inhibitors of the vitamin D receptor (VDR): qHTS). Conditions: VDR-SRC2-3 peptide fluorescence polarization, 2 h; max response, negative = inhibition: hits give low values.
How it was run: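 Signal is fluorescence polarization, reporting how far test compounds block the interaction of VDR with the SRC2-3 coregulator peptide after a 2 h room-temperature incubation.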
% is scaled to controls: 0 for no effect and ±100 for the full control effect; potency is read from the fitted curve at half-maximal effect.

Max response, negative = inhibition, inactive:
COc1ccc(N2C(=O)CC(Sc3nnnn3-c3ccc(F)cc3)C2=O)cc1 (stereo not drawn) -8.64%, N#CC1(C#N)CC(C=O)=C(N)C1(C#N)CC(=O)c1ccc(F)cc1 (stereo not drawn) -9.19%, CCn1c2ccc(C)cc2c2nnc(SCCN3CCCCC3)nc21 -22.5%, O=C(CN1C(=O)NC2(CCc3ccccc3C2)C1=O)NCc1ccco1 (stereo not drawn) 2.48%, CC(=O)Oc1cc2c(c(C)c1OC(C)=O)CC=C1[C@]3(C)CC[C@]4(C)CC[C@@](C)(C(=O)O)CC4[C@]3(C)CC[C@]12C (stereo partly drawn) -10.2%, C=CCOc1cccc(C2C(C(=O)c3ccco3)=C(O)C(=O)N2Cc2ccco2)c1 (stereo not drawn) -23.8%, CCOC(=O)CSc1nnc(NC(=O)c2cccc([N+](=O)[O-])c2C)s1 -15.5%, Cc1ccc(CN(C(=O)N2CCN(C)CC2)S(=O)(=O)c2ccc(C)cc2)cc1 0.519%, NC(=O)CC(NC(=O)Cc1ccc(Br)cc1)c1ccc(NCCN2CCCCC2)c([N+](=O)[O-])c1 (stereo not drawn) -6.04%, Cc1ccc2c(c1)-c1c(cnn1CC(=O)N1CCN(c3cccc(C(F)(F)F)c3)CC1)CO2 21.5%, COc1ccc(-n2c(SCC(=O)NCc3ccccc3)nc3ccsc3c2=O)cc1 4.69%, COc1ccc(CNC(=O)CN2C(=O)COc3ccc(S(=O)(=O)N4CCCCCC4)cc32)cc1 1.4%, O=C(Nc1cccnc1Cl)c1cc2ccccc2o1 -0.716%, CCN(CC(=O)Nc1c(F)cccc1F)C(=O)Cn1[nH]c(=O)c2ccccc2c1=O 1.65%, Nc1ncnc2[nH]c(=O)[nH]c12 10.7%, Cc1ccc(S(=O)(=O)Nc2ccccc2-c2ccccc2NS(=O)(=O)c2ccc(C)cc2)cc1 2.64%, O=C(Nc1ccc(OC(F)(F)F)cc1)C1CCCN(S(=O)(=O)c2cccnc2)C1 (stereo not drawn) 2.31%, O=C(CSc1cn(CC(=O)N2CCOCC2)c2ccccc12)Nc1ccccc1F -2.25%, Cc1cc(C)c2ccc(/C=N/O)nc2c1O -5.54%, CC(=O)N1CCC2(CC1)CN(Cc1ccccc1)C2 -9.72%, Cc1ccsc1C(=O)OC(C)C(=O)NC1CCCCC1C (stereo not drawn) 5.27%, CSc1ccc(S(=O)(=O)NCCCn2ccnc2)cc1 -9.58%, CN1C=C/C(=C\c2cc[n+](C)c3ccccc23)c2ccccc21 1.42%, CC(=O)c1ccc(NC2CC(O)C(O)CO2)cc1 (stereo not drawn) 10.7%, Cc1ccccc1CN(c1ccc(C(=O)N/N=C/c2ccc(OCC(N)=O)cc2)cc1)S(C)(=O)=O -2.29%

Potency, active:
COc1cccc(NC2=CC(c3ccc(C(C)C)cc3)N(c3cccc(OC)c3)C2=O)c1 (stereo not drawn) 20 µM, Cc1cc(O)c2c(c1)C(=O)c1cccc(O)c1C2=O 39.8 µM and 14.1 µM, CCCCn1c(NS(=O)(=O)c2ccccc2)c(S(=O)(=O)c2ccc(C)cc2)c2nc3ccccc3nc21 50.1 µM, CC(=O)OCC1=C(C(=O)O)N2C(=O)C(NC(=O)CCn3nc(C(F)(F)F)c(Br)c3C3CC3)C2SC1 (stereo not drawn) 39.8 µM, Fc1cccc(NC(=S)NNc2ccccc2)c1 39.8 µM, O=C(CSc1cn[nH]n1)Nc1cccc(C(=O)O)c1 44.7 µM, CC(C)(C)c1ccc(C2=NC(=O)C(CC(=O)O)S2)cc1 (stereo not drawn) 25.1 µM, CC1CCN(C(=S)c2ccc(-c3ccc(Cl)cc3Cl)o2)CC1 79.4 µM

Potency, inconclusive:
CCN(Cc1ccccc1)C(=O)Cc1ccc(OC)c(S(=O)(=O)N2CCOCC2)c1 89.1 µM [inhibitor, single point], O=[N+]([O-])c1cccc(S(=O)(=O)c2ccc(NCCO)c([N+](=O)[O-])c2)c1 17.8 µM [inhibitor, full curve, poor fit], Cc1ccc(/C(O)=C2\C(=O)C(=O)N(C)C2c2ccc([N+](=O)[O-])cc2)cc1 (stereo not drawn) 63.1 µM [inhibitor, partial curve, poor fit], CCOc1ncccc1C(=O)OCC(=O)c1ccc(F)cc1 89.1 µM [inhibitor, partial curve, poor fit], COc1ccccc1NC(=O)CSc1n[nH]c(-c2ccco2)n1 70.8 µM [inhibitor, single point], COc1ccccc1CNc1ccnc(-c2ccccc2OC)n1 50.1 µM [inhibitor, partial curve], COc1ccc(C(=O)Oc2c(OC)cc(C(=S)N3CCOCC3)cc2OC)cc1OC 79.4 µM [inhibitor, partial curve, poor fit], Cc1cc(-c2n[nH]c(=S)n2/N=C/C(Cl)=C/c2ccccc2)n[nH]1 79.4 µM [inhibitor, single point], CC(/C=C/c1ccco1)=N/NC(=O)CNc1ccccc1C 89.1 µM [inhibitor, partial curve, poor fit], COc1cccc(C(=O)C2CN(c3ccccc3)CC2c2ccc(Cl)cc2)c1 (stereo not drawn) 50.1 µM [inhibitor, single point], CC(=O)O[C@@]1(C(C)=O)CCC2C3C=C(Cl)C4=CC(=O)CC[C@]4(C)C3CC[C@]21C (stereo partly drawn) 56.2 µM [inhibitor, single point], Cc1nc(-c2ccc(Cl)cc2)sc1C(=O)CBr 50.1 µM [inhibitor, partial curve, poor fit], O=C(Nc1ccccc1)N1CCc2scc[n+]2-c2ccccc21 70.8 µM [inhibitor, partial curve], O=C1CC(c2ccccc2)CC(=O)C1Sc1ccc(Cl)cc1 (stereo not drawn) 79.4 µM [inhibitor, single point], C=C1C(=O)[C@@]23[C@H](O)C[C@@H]4C(C)(C)CC[C@H](O)[C@]4(C)[C@@H]2C[C@H](O)[C@@H]1[C@H]3O 56.2 µM [inhibitor, partial curve, poor fit], Cc1noc(C)c1-c1cc(N2CCNCC2)ncn1 50.1 µM [inhibitor, partial curve, poor fit], CCCn1c(O)c(CN2CCCC(C)C2)c(C)c(C#N)c1=O (stereo not drawn) 79.4 µM [inhibitor, single point], COc1cccc(-c2nc(N(C)Cc3ccco3)c3ccccc3n2)c1 50.1 µM [inhibitor, partial curve, poor fit], Cc1nnnn1CC(=O)Nc1cccc([N+](=O)[O-])c1 89.1 µM [inhibitor, single point], CCOC(=O)C1=C[C@@H](C(=O)OCC)[C@@H]2C3=C(C(=O)C2(C)C)[C@H](c2ccccc2)[C@@H]2C(=O)N(c4ccccc4)C(=O)[C@@H]2[C@@H]3C1 89.1 µM [inhibitor, partial curve, poor fit], O=C(N/N=C/C(Br)=C/c1ccccc1)c1ccccc1F 89.1 µM [inhibitor, single point], CN(C)c1ccc(NC(=O)CSc2nc(N)c(C(=O)Nc3ccc(N(C)C)cc3)s2)cc1 10 µM [inhibitor, partial curve, poor fit], COc1cccc(COC(=O)CSCC(=O)Nc2cccc(C)c2)c1OC 79.4 µM [inhibitor, single point], Fc1cccc(/C=N/Nc2nncc3ccccc23)c1 89.1 µM [inhibitor, single point], Cc1cc2ccccc2n1CCNC(=O)c1cccc(Br)c1 100 µM [inhibitor, single point], COc1ccc(/C=C(/NC(=O)c2ccccc2)C(=O)NC2CCS(=O)(=O)C2)cc1 (stereo not drawn) 28.2 µM [inhibitor, partial curve, poor fit], Cc1ccc(/C=C2/NC(=O)N(Cc3ccc(Br)cc3)C2=O)o1 56.2 µM [inhibitor, partial curve, poor fit], COc1cccc(N2CCN(c3ccc4nnc(CCC(=O)Nc5cccc(C(C)=O)c5)n4n3)CC2)c1 39.8 µM [inhibitor, partial curve, poor fit], N#C/C(=C\c1ccc(OC(F)F)cc1)C(=O)N1CCCCC1 79.4 µM [inhibitor, partial curve], CC1(C)CC(NS(=O)(=O)OCC(Cl)(Cl)Cl)c2cc(C#N)ccc2O1 (stereo not drawn) 79.4 µM [inhibitor, partial curve, poor fit], O=C(/C=C/c1ccc(O)cc1)c1cccs1 35.5 µM [inhibitor, single point], O=c1cnnc(N/N=C/c2ccccn2)[nH]1 22.4 µM [inhibitor, partial curve, poor fit], Cc1nc(C)c(C(=O)N(c2ccc(F)cc2)C(C(=O)NCC2CCCO2)c2ccccc2)s1 (stereo not drawn) 89.1 µM [inhibitor, single point], O=S(=O)(Nc1c(S(=O)(=O)c2ccccc2)c2nc3ccccc3nc2n1C1CCCCC1)c1ccccc1 10 µM [inhibitor, full curve, poor fit], O=C(O)c1cc(=S)nc[nH]1 89.1 µM [inhibitor, single point]
